Each structure is given as a SMILES string. ± gives the standard deviation of the averaged measurements. The list shows a part of the results. Repeats are few or missing, and single values can be far off.

This assay relates to RAW 264.7 macrophages infected with S. aureus JE2-lux. As to the kind of experiment: host macrophage viability (CellTiter-Fluor) relative to DMSO vehicle; higher = more viable host cells. Conditions: 10 µM; treatment time 4 h; gentamicin 50 µg/ml.
As for `CC(=O)c1ccc(-n2nnnc2SCC(=O)c2ccc3c(c2)OCCO3)cc1`, the host macrophage viability amounted to 103%.

As for `CC(C)N1C(=O)c2ccccc2Sc2cc(NC(=O)c3cncc(Br)c3)ccc21`, the host macrophage viability is 119%.

On to `COc1ccc(NC(=O)Cn2c(=O)c3cc(Cl)ccc3n3nncc23)cc1`, for which the host macrophage viability is 124%.

In the case of `CCCCc1c(C)nn(-c2nc(C)c(C(=O)Nc3cccc(C)c3C)s2)c1O`, the host macrophage viability turned out to be 105%.

Take `CC(C)(C)NC(=O)c1cccc2c1-c1ccccc1C2=O`: the host macrophage viability was found to be 111%.

With `CCc1cccc(NC(=O)c2nn(C)c(C(F)(F)F)c2Cl)c1`, the host macrophage viability was 120%.

As for `O=C(CSc1ncnc2nc[nH]c12)N1CCN(Cc2ccc3c(c2)OCO3)CC1`, the host macrophage viability was determined as 125%.

As for `CCOc1ccccc1/C=N/NC(=O)c1n[nH]c2c1CCC2`, the host macrophage viability came out at 90.9%.

Consider `Cc1cccc(C(c2sc3nc(C)nn3c2O)N2CCCC2)c1` (centres undefined), for which the host macrophage viability stood at 120%.

For `CC1CCc2c(sc3ncnc(NCCN4CCOCC4)c23)C1` (centres undefined), the host macrophage viability turned out to be 105%.

Consider `CCN(C(=O)C1CCCCC1)c1nc2c(s1)CCc1oc(C)cc1-2`, for which the host macrophage viability was 106%.

Take `COc1ccc(NC(=O)CSc2nc3ccccc3o2)cc1`: the host macrophage viability is 112%.

Consider `Cc1ccc(C2=NS(=O)(=O)N(C)C(C(=O)Nc3cc(C)n(CC(=O)Nc4cccnc4)n3)=C2)cc1`, for which the host macrophage viability is 103%.

For the compound `Cc1c(C(=O)Oc2cc(N)n(S(C)(=O)=O)n2)cccc1[N+](=O)[O-]`, the host macrophage viability worked out at 126%.

For the compound `CCC(=O)Nc1ccc(N2C(=O)CS/C2=N\NC(=O)c2ccc(O)cc2)cc1`, the host macrophage viability was determined as 111%.

For `Cc1ccc(-n2c(=O)c3oc4ccccc4c3n(CC(=O)Nc3ccccc3F)c2=O)cc1`, the host macrophage viability turned out to be 119%.

As for `CC(=O)Nc1cccc(NC(=O)CSc2nnc(NC(=O)Cc3ccc(F)cc3)s2)c1`, the host macrophage viability is 111%.

Regarding `O=C(CS(=O)(=O)c1ccccc1)Nc1cccc2c1C(=O)c1ccccc1C2=O`, the host macrophage viability was found to be 111%.

In the case of `O=C(CSc1ncnc2[nH]ncc12)Nc1nc(-c2ccco2)c(-c2ccco2)s1`, the host macrophage viability worked out at 144%.

In the case of `O=C(NNc1nc2ccc(Cl)cc2s1)c1nc2ccccc2s1`, the host macrophage viability was 95.6 ± 9.3%.

Regarding `Cc1cccc(N2CCN(C(=O)c3cc(CN4CCOCC4)on3)CC2C)c1` (centres undefined), the host macrophage viability was 136%.

Regarding `O=C(c1ccccc1)N1N=C(c2ccc(O)cc2)CC1c1ccco1` (centres undefined), the host macrophage viability was 119%.

For `NC(=O)C1CCN(C(=O)Cc2cc(=O)[nH]c(=O)[nH]2)CC1`, the host macrophage viability came out at 106%.

`COc1ccc(NC(=O)c2ccccc2NS(=O)(=O)c2ccc(F)cc2)c([N+](=O)[O-])c1`: the host macrophage viability came out at 84.6%.

As to `Cc1nc(C)c(C(=O)N2CCN(S(=O)(=O)c3c(C)nn(Cc4ccccc4)c3C)CC2)s1`, the host macrophage viability was determined as 117%.

With `COc1ccc(-c2nc3c(C)cccn3c2NCc2ccc3c(c2)OCO3)cc1OC`, the host macrophage viability is 106%.

In the case of `Cc1cccc(CNC(=O)c2nn(C)c3c2CN(S(=O)(=O)c2cn(C)cn2)CC3)c1`, the host macrophage viability worked out at 116%.

Take `CCCCNC(=O)c1cnc(N2CCOCC2)nc1C`: the host macrophage viability was 91.2%.

With `O=C(CSc1cc[nH]c(=O)n1)NCc1ccccc1`, the host macrophage viability was 102%.

With `Cc1ccn2c(=O)c(C(=O)NCCCN3CC(C)CC(C)C3)c(O)nc2c1` (centres undefined), the host macrophage viability was 118%.

With `CCCNC(=O)CCc1c(C)[nH]c2nc(NCc3cccs3)nn2c1=O`, the host macrophage viability was found to be 105%.

Regarding `Cc1ccc(SCc2cc(=O)[nH]c(N3CCN(c4ccccc4)CC3)n2)cc1`, the host macrophage viability is 109%.

With `COC(=O)c1c(NC(=O)CC2Sc3ccccc3NC2=O)sc2c1CCC(C(C)(C)C)C2` (centres undefined), the host macrophage viability was determined as 116%.

`COc1cccc(Nc2nc(N3CCOCC3)c3cnn(C)c3n2)c1`: the host macrophage viability is 122%.

Take `CCc1ccccc1NC(=O)NC1CC(=O)N(c2cccc(OC)c2)C1` (centres undefined): the host macrophage viability came out at 109%.

On to `Cc1cccc(N2CCN(S(=O)(=O)c3cc(-c4ccno4)oc3C)CC2C)c1` (centres undefined), for which the host macrophage viability amounted to 112%.

As to `O=C(O)C(Cc1c[nH]cn1)N1C(=O)c2cccc([N+](=O)[O-])c2C1=O` (centres undefined), the host macrophage viability was 124%.

Take `CCCc1n[nH]c2c1C(C1CC=CCC1)C(C#N)=C(N)O2` (centres undefined): the host macrophage viability was 99.1%.

For the compound `CCOC(=O)c1[nH]c2ccccc2c1NC(=O)c1cc(Cl)ccc1OC`, the host macrophage viability turned out to be 114%.

Turning to `COc1ccccc1NC(=O)C1CCN(c2cnccn2)CC1`, the host macrophage viability was 112%.

Take `Cc1ccc(OCC(O)Cn2c(NCCCO)nc3c2c(=O)n(C)c(=O)n3C)cc1C` (centres undefined): the host macrophage viability is 119%.

Take `O=C(Nc1ccccc1Cl)C1CCN(C(=O)Nc2ccccc2)CC1`: the host macrophage viability came to 109%.

Take `NC(=O)c1nc(-c2ccoc2)nc2c1[nH]c(=O)n2-c1ccc(Cl)cc1`: the host macrophage viability worked out at 132%.

With `O=C(CSc1nccc2ccccc12)NC1CCCOC1` (centres undefined), the host macrophage viability stood at 116%.

With `Cc1ccc(-c2csc(-c3cccn3CC(=O)N3CCN(c4cccc(C)c4)C(C)C3)n2)cc1` (centres undefined), the host macrophage viability amounted to 109%.

As to `COCc1c(Br)c(C)nc(OCC(=O)N/N=C/c2ccccc2O)c1C#N`, the host macrophage viability turned out to be 106%.

For the compound `COc1ccccc1NC(=O)CSc1ncnc2c1oc1ccccc12`, the host macrophage viability turned out to be 134%.

With `O=c1ccn(-c2nc(-c3ccccc3)sc2-c2ccccc2)c(=O)[nH]1`, the host macrophage viability came to 109%.

On to `COc1ccc(-c2noc(N3CCC(C(=O)N(C)c4ccc(F)cc4)CC3)n2)cc1`, for which the host macrophage viability was determined as 121%.

In the case of `O=C(CSc1nc(-c2ccc(F)cc2)nc2c1Cc1ccccc1O2)Nc1ccc(C(=O)O)cc1`, the host macrophage viability amounted to 120%.

Regarding `COc1ccc(-c2nn(-c3ccccc3)cc2CNC(=O)/C=C/C(=O)O)cc1`, the host macrophage viability came out at 106%.

With `Cc1ccc(NC(=O)CSc2nnc(-c3cccnc3)n2N)cc1Cl`, the host macrophage viability amounted to 131%.

For the compound `O=C(NNc1nc2ccc(F)cc2s1)c1ccc(S(=O)(=O)N2CCc3ccccc3C2)cc1`, the host macrophage viability is 140 ± 2.4%.

In the case of `COc1ccc(NC(=O)CSc2nnc3[nH]c(=O)ccn23)c(OC)c1`, the host macrophage viability was 120%.

For `Cc1ccc(-c2nnc3ccccc3c2C(=O)Nc2ccccc2Cl)cc1`, the host macrophage viability came to 117%.

Take `COc1ccccc1NC(=O)Nc1nc(-c2cccnc2)nc2ccccc12`: the host macrophage viability was 104%.

`Cc1nc(-n2nc(C)c(Cc3ccccc3)c2O)sc1C(=O)NC(C)C`: the host macrophage viability worked out at 105%.

For the compound `COC(=O)c1c(-c2cccc(F)c2)noc1NCc1ccc(F)cc1`, the host macrophage viability came out at 105%.

On to `COc1cccc(-n2nnc3c(N4CCN(C(=O)COc5ccc(Cl)cc5)CC4)ncnc32)c1`, for which the host macrophage viability stood at 104%.

`Cc1n[nH]c2c1C(c1ccc(-c3cccc([N+](=O)[O-])c3)o1)C(C#N)=C(N)O2` (centres undefined): the host macrophage viability is 88.4%.

`CC(C)c1ccc(C2C(C#N)=C(SCC(N)=O)NC3=C2C(=O)CCC3)cc1` (centres undefined): the host macrophage viability was found to be 102%.

On to `Cc1ccc(OCC(=O)N/N=C2/C(=O)Nc3c(Br)cc(Br)cc32)cc1`, for which the host macrophage viability came out at 106%.

Consider `COc1ccc(C(=O)Nc2nc3ccc(S(=O)(=O)N4CCCC4)cc3s2)c(OC)c1`, for which the host macrophage viability was 117%.

Regarding `Cn1c(=O)c2c(nc(CN3CCOCC3)n2CC(=O)C(C)(C)C)n(C)c1=O`, the host macrophage viability is 113%.

For `COc1ccc(C(NC(=O)c2cc(-c3ccccn3)n[nH]2)c2ccncc2)cc1` (centres undefined), the host macrophage viability was 111%.

Regarding `CC(C(=O)c1ccc(Cl)cc1)C1(O)C(=O)Nc2ccccc21` (centres undefined), the host macrophage viability is 108%.

Take `O=C(CSc1ncnc2ccccc12)NC1CCCCC1`: the host macrophage viability came to 112 ± 6.8%.

Regarding `Cc1cc(SCC(=O)NC2CCCCC2)nc(=O)[nH]1`, the host macrophage viability is 116%.

For the compound `O=C(Cn1nc(-c2ccoc2)oc1=O)NC1CCCCC1`, the host macrophage viability came to 122%.

For the compound `COC(=O)N1CCc2c(sc(NC(=O)c3cccc(N4C(=O)CCC4=O)c3)c2C(N)=O)C1`, the host macrophage viability was 120%.

Consider `COc1ccc(/C=C/C(=O)Nc2ccc(S(=O)(=O)N3CCc4ccccc43)cc2)cc1`, for which the host macrophage viability was found to be 122%.

As to `Nc1ccc(-c2ccc(N)c([N+](=O)[O-])c2)cc1[N+](=O)[O-]`, the host macrophage viability was 98.5 ± 2.3%.

In the case of `COc1ccc(-n2nnc3c(N4CCN(C(=O)C(=O)c5c[nH]c6ccccc56)CC4)ncnc32)cc1`, the host macrophage viability was 130%.

Consider `CNc1nnc(CSc2nc(C)cc(C)n2)s1`, for which the host macrophage viability amounted to 129%.

As to `O=C(CCn1c(=O)oc2ccccc21)NCCC1=CCCCC1`, the host macrophage viability was 98 ± 4.8%.

For the compound `COc1ccccc1C(=O)Nc1ncc(S(=O)(=O)c2ccc([N+](=O)[O-])cc2)s1`, the host macrophage viability was found to be 94.2%.

As for `CCC(=O)Nc1c(-c2ccccc2)c2cc(Br)ccc2[nH]c1=O`, the host macrophage viability was found to be 124%.

Take `Cc1ccc(S(=O)(=O)NC(=N)NCCc2c(C)[nH]c3ccc(C)cc23)cc1`: the host macrophage viability was found to be 126%.

With `Cc1ccc(Nc2c(C(=O)NCc3ccco3)cnc3c2c(C)nn3C)cc1`, the host macrophage viability was 119%.

As to `C=CCOc1ccc(C2CC(=O)Nc3c2cnn3-c2nc3ccccc3s2)cc1OCC` (centres undefined), the host macrophage viability came out at 103%.

As for `Cc1nc2c(c(=O)n1CC(=O)Nc1ccc(F)cc1)CCN(Cc1ccccc1)C2`, the host macrophage viability was found to be 98.2%.

`O=C1Nc2ccccc2/C1=C1/SC(=S)N(c2ccccc2F)C1=O`: the host macrophage viability came to 120%.

Take `Fc1ccc2ncc3c(-c4ccccc4)n[nH]c3c2c1`: the host macrophage viability is 126%.

Take `CCc1ccc(NC(=O)CSc2nc(-c3ccc(C(C)C)cc3)no2)cc1`: the host macrophage viability worked out at 105%.

`Cc1c(NS(=O)(=O)c2ccc(Cl)cc2)c(-n2cnnc2)nn1C`: the host macrophage viability is 108%.

Regarding `COc1ccccc1NC(=O)CSc1nnc2cc(C)c3ccccc3n12`, the host macrophage viability turned out to be 123%.

For `COc1ccc(Cl)cc1NC(=O)c1cccn(OCc2ccccc2F)c1=O`, the host macrophage viability turned out to be 128%.

As to `COCCNC(=O)CSc1nc(-c2ccccc2)nc2ccc(Cl)cc12`, the host macrophage viability turned out to be 101%.

Take `Cc1ccc(-c2cc(C(F)(F)F)n3nc(C(=O)Nc4ccc5c(c4)OCO5)nc3n2)cc1`: the host macrophage viability is 136%.

Regarding `Cc1ccc(NC(=O)c2cc3c(CO)cnc(C)c3o/c2=N\c2cccc3ccccc23)cc1C`, the host macrophage viability came to 111%.

Turning to `CC1(C)Oc2ccc(NC(=O)COc3ccc(CN4CCCC4)cc3)cc2O1`, the host macrophage viability stood at 106%.

Regarding `Cc1cc2c(=O)n(CC(=O)N3CCC(O)(c4ccccc4C)CC3)cnc2s1`, the host macrophage viability amounted to 89.7%.

In the case of `COc1cccc(C(=O)Nc2cccc(-c3nc4ncccc4o3)c2)c1`, the host macrophage viability worked out at 109%.

Consider `Cc1nc(Nc2ccc(NC(=O)Nc3cccc(C(F)(F)F)c3)cc2)cc(N2CCOCC2)n1`, for which the host macrophage viability was 117%.

For `CC(C)(C)c1nc(SCC(=O)Nc2ccc3c(c2)OCO3)c2ccccc2n1`, the host macrophage viability came out at 116%.

With `Cc1ccc(F)cc1Nc1ncnc(N)c1[N+](=O)[O-]`, the host macrophage viability turned out to be 114%.

As for `CC(C)c1ccc2nc3sc(C(=O)Nc4nccs4)c(N)c3cc2c1`, the host macrophage viability was 130%.

In the case of `Cc1ccc(C(=O)Nc2ccc3c(c2)C(=O)NC3=O)cc1C`, the host macrophage viability amounted to 130%.

Turning to `O=C(COc1ccccc1)c1ccc(O)c(O)c1O`, the host macrophage viability turned out to be 97.8 ± 2.2%.

With `CC(NC(=O)c1ncoc1-c1ccc(F)cc1)C(=O)N1CCCCC1` (centres undefined), the host macrophage viability amounted to 145%.

On to `COC(=O)C1=C(C)N(Cc2ccccc2)C(=O)NC1c1ccccc1F` (centres undefined), for which the host macrophage viability turned out to be 105%.

For `Cc1ccc2nc(NC(=O)CSc3nc(=O)n(N4CCN(C)CC4)c4c3CCCC4)sc2c1`, the host macrophage viability was found to be 116%.

On to `COc1ccc(NC(=O)CNCCO)c(OC)c1`, for which the host macrophage viability stood at 112%.

Take `Cc1cc2c(o1)CCc1sc(N(C)C(=O)c3cc(C(C)(C)C)nn3C)nc1-2`: the host macrophage viability is 133%.

The values above are taken from the supplement of paper PMC12578635.
